Measured data: PubChem BioAssay AID743454 (Peter MacCallum Cancer Centre, 2014)
Here is a random part of about 18,000 reagents tested. In the full data, 450 (2.5%) are marked active. 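Single biological run; no consistent viability z cut-off exists, so the class columns, not z-scores, define the calls.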

- Purpose: 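Search for knock-downs that restore vorinostat killing in resistant colon cancer cells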 (primary screen)
- System: human HCT116-VR colon cancer cells, selected for vorinostat resistance
- Reagents: siRNA pool against human genes, 40 nM siRNA pool
- Duration: vorinostat for 24 h, read-out about 72 h after transfection
- Challenge: vorinostat at 2.5 µM final
- Read-out: 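Cell viability by CellTiter-Fluor and caspase 3/7 activity by luminescence, each scaled to mock wells per plate, duplicates averaged, then robust z-scored over all plates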
- Scale: viability robust z-score: higher = more viable cells than screen typical; caspase robust z-score: higher = more caspase 3/7 activity than screen typical
- Active means: 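Hits are knock-downs in viability class RV1/RV2 or caspase class CA1/CA2, excluding ones that killed cells in the no-drug cell-count arm; hits then retested with single siRNAs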

Depletion of PDE4B came out at: viability hit class no change; caspase hit class no change; viability robust z-score 1.81; caspase robust z-score -0.54; inactive.
Silencing of DENND5A came out at: viability hit class no change; caspase hit class no change; viability robust z-score 1.95; caspase robust z-score 0.93; inactive.
Silencing of MUC15 came out at: viability hit class no change; caspase hit class no change; viability robust z-score -1.01; caspase robust z-score 4.57; inactive.
Against ACVRL1 the deposit lists viability hit class no change; caspase hit class no change; viability robust z-score 0.08; caspase robust z-score -0.58; inactive.
For IRX4, the entry reads viability hit class no change; caspase hit class no change; viability robust z-score -1.02; caspase robust z-score 2.54; inactive.
Silencing of VCL resulted in: viability hit class no change; caspase hit class no change; viability robust z-score 0.21; caspase robust z-score 2.15; inactive.
HES5 scored viability hit class no change; caspase hit class no change; viability robust z-score -0.86; caspase robust z-score -0.34; inactive.
After knock-down of C18orf32, the record shows viability hit class no change; caspase hit class no change; viability robust z-score 1.42; caspase robust z-score 1.94; inactive.
After knock-down of DNAJC12, the record shows viability hit class no change; caspase hit class no change; viability robust z-score -0.32; caspase robust z-score 3.78; inactive.
After knock-down of CATSPER3 the results were viability hit class no change; caspase hit class no change; viability robust z-score -0.51; caspase robust z-score 0.16; inactive.
Knock-down of CD70 came out at: viability hit class no change; caspase hit class no change; viability robust z-score -0.15; caspase robust z-score -0.9; inactive.
Silencing of GUCY1A2 gave: viability hit class no change; caspase hit class no change; viability robust z-score 0.78; caspase robust z-score 0.32; inactive.

Records above whose gene name starts with D or d:
DENND5A: viability hit class = no change; caspase hit class = no change; viability robust z-score = 1.95; caspase robust z-score = 0.93; outcome = inactive
DNAJC12: viability hit class = no change; caspase hit class = no change; viability robust z-score = -0.32; caspase robust z-score = 3.78; outcome = inactive
